# Laboratory results published in PubChem BioAssay AID651558 (National Center for Advancing Translational Sciences (NCATS), 2012).
# Hit rate of the full screen: of about 1,200 compounds, about 480 (40%) were called active. The inconclusive results got no clear call from the source; some entries with a clear call stand among them for comparison. The call rests on the fitted dose curve; in most records, active means well fitted inhibition curve with a large enough effect; inconclusive means small, poorly fitted or top-dose-only effect; inactive means no such curve, though single readings can be large or run the other way. Where the call is inconclusive, the potency comes from a doubtful curve fit.
# Assay: qHTS Assay to Find Inhibitors of Chronic Active B-Cell Receptor Signaling: Hit Validation in Primary Screen; further: nearly all actives have a fitted effect of over 75% in size
# Settings: ABC-DLBCL IkB-luc/CBR ratio luminescence, 4 h; series mostly up to 46.1 µM; activity change, negative = inhibition: at the top concentration
# In short: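 TMD8 ABC-DLBCL cells carrying doxycycline-inducible IkBa-green luciferase fusion and free red luciferase, 0.5% FBS, dosed 46 uM–3 nM with doxycycline for 4 h at 37C. Green/red luminescence ratio normalized to basal and 10 uM MG-132.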
# On the % scale 0 is the no-effect control and ±100 the full control effect; potency means the concentration at half of the fitted maximal effect.
SMILES,"activity change, negative = inhibition",Potency
COC(=O)c1cn(C(=O)c2ccc(OC)cc2)c2ccccc12,inactive: 38.5%,
COc1ccc(OC)c(Nc2c3c(nc4ccccc24)CCC3)c1,,active: 14.6 µM
COc1ccc(NC(=O)C2CCCN2S(=O)(=O)c2cccc3cccnc23)cc1OC (centres undefined),,"inconclusive: 14.6 µM [inhibitor, partial curve, poor fit]"
CCOC(=O)C(C)/C(C)=N/NC(N)=S (centres undefined),,"inconclusive: 6.51 µM [inhibitor, single point]"
N#CC1=C2SCC(O)(c3ccccc3)N2C(=O)CC1c1ccccc1 (centres undefined),,active: 18.4 µM
C[C@]12CC[C@H]3C(=CCc4cc(O)ccc43)[C@@H]1CCC2=O,inactive: -23.1%,
CCOCCOC(=O)c1[nH]c2c(c1C)C(=O)CC(c1ccccc1)C2 (centres undefined),,active: 1.64 µM
CCN(C(=O)COC(=O)c1cc([N+](=O)[O-])ccc1N1CCOCC1)c1ccccc1,,"inconclusive: 16.4 µM [inhibitor, partial curve]"
CCCSc1nc(=O)n2cccc(C)c2n1,,"inconclusive: 14.6 µM [inhibitor, partial curve]"
CC(=O)c1cc(C#N)c(SCCC(C)C)nc1C,,"inconclusive: 23.1 µM [inhibitor, single point]"
CCCC(=O)Nc1ccc(C(=O)N/N=C/c2cccnc2)cc1,inactive: -1.77%,
COc1ccc(/C=N/NC(=O)c2ccc3c(c2)NC(=O)C(C)(C)O3)cc1OC,,"inconclusive: 14.6 µM [inhibitor, partial curve]"
O=Cc1ccc(O)c2ncccc12,inactive: -2.92%,
COc1cc(/C=N/NC(=O)C2C3CCCCC32C)cc(Br)c1O (centres undefined),,"inconclusive: 11.6 µM [inhibitor, partial curve, poor fit]"
COc1ccc(S(=O)(=O)N2CCCCC2)cc1NS(=O)(=O)c1cc(Cl)ccc1Cl,,"inconclusive: 14.6 µM [inhibitor, partial curve]"
CC1CC(C)CN(S(=O)(=O)c2ccc(NC(=O)c3ccc(=O)[nH]c3)cc2)C1 (centres undefined),,active: 9.2 µM
CC(=NNC(=O)c1cc(C)nc2ccccc12)c1ccc(N2CCOCC2)cc1,inactive: -17.3%,
CC(=O)c1ccc2c(c1)CC(C)C(=O)N2C (centres undefined),inactive: -24.3%,
CNC(=S)N/N=C(\C)c1ccc(Cl)s1,inactive: -14.9%,
COc1cc(/C=C/c2ccc3c(Br)cc(Br)c(O)c3n2)ccc1O,,"inconclusive: 9.2 µM [inhibitor, partial curve]"
CN(CC(=O)O/N=C(\N)c1ccccn1)S(=O)(=O)c1cc(Cl)ccc1Cl,,"inconclusive: 8.2 µM [inhibitor, partial curve, poor fit]"
COc1cc(OC)cc(C(=O)Oc2c(CN3CCOCC3)cc(Cl)c3cccnc23)c1,inactive: 36.6%,
COc1ccc(/C=N/NC(=O)C(=O)N2CCCCCC2)cc1[N+](=O)[O-],,"inconclusive: 9.2 µM [inhibitor, partial curve, poor fit]"
Cc1ccc(NC(=O)C(=O)NCC2CCCN2S(=O)(=O)c2cccs2)cc1C (centres undefined),inactive: -23.6%,
Cc1ccc(NC(=S)NC(=O)c2ccc(F)cc2)cc1S(=O)(=O)Nc1cccc(Cl)c1,,"inconclusive: 18.4 µM [inhibitor, partial curve]"
C=CCn1c(SCC(=O)NCCO)nc2sc(C)c(C)c2c1=O,,"inconclusive: 9.2 µM [inhibitor, partial curve]"
O=[N+]([O-])c1cccnc1SCc1c(F)cccc1Cl,,"inconclusive: 6.51 µM [inhibitor, partial curve]"

SMILES,"activity change, negative = inhibition",Potency
O=C(Oc1c(CN2CCOCC2)cc(Cl)c2cccnc12)c1cccs1,inactive: -6.17%,
O=C1CC(c2ccccc2)Cc2nc3ncnn3cc21 (centres undefined),inactive: -0.669%,
CNc1nc(-c2ccc(OC)cc2)c(-c2ccc(OC)cc2)s1,,"inconclusive: 20.6 µM [inhibitor, partial curve]"
COc1ccc2cc(C3c4cc(OC)c(OC)cc4CCN3C(=O)c3ccco3)c(=O)[nH]c2c1 (centres undefined),,"inconclusive: 6.51 µM [inhibitor, partial curve]"
CC(=O)Nc1cc(N=Cc2ccc(O)cc2O)c(Cl)cc1Cl,,"inconclusive: 14.6 µM [inhibitor, partial curve]"
Cc1nnc2ccc(-c3ccc(NS(=O)(=O)c4ccccc4[N+](=O)[O-])cc3)nn12,,active: 20.6 µM
COc1ccc(-c2nn(-c3ccccc3)cc2/C=N/NC(N)=S)cc1OC,,active: 20.6 µM
COc1ccc2c(c1)C(C)=CC(C)(C)N2S(=O)(=O)c1ccc(C)cc1,,"inconclusive: 3.66 µM [inhibitor, full curve]"
CCn1c2ccccc2c2cc(NC(=O)c3cc(OC)c(OC)c(OC)c3)ccc21,,active: 0.731 µM
CC(Oc1ccc(Br)cc1)c1nc2c3ccccc3nc(=S)n2[nH]1 (centres undefined),,"inconclusive: 29.1 µM [inhibitor, single point]"
COCCNC(=S)N/N=C(\C)c1ccccc1F,inactive: -7.26%,
COc1ccccc1-c1nc2c3ccccc3nc(=S)n2[nH]1,inactive: -12.7%,
CCN(CC)S(=O)(=O)c1ccc(N2CCOCC2)c(NC(=O)c2[nH]c(C)c(C(C)=O)c2C)c1,inactive: 103%,
Oc1ccc(NCc2ccccc2OCc2ccccc2)cc1,,"inconclusive: 14.6 µM [inhibitor, partial curve]"
COc1ccc(OC)c(C2C3=C(COC3=O)Nc3cc4c(cc32)OCO4)c1 (centres undefined),,active: 0.366 µM
CCN(C(=O)c1cnc(NC(C)C)cc1C(F)(F)F)c1ccc(Cl)cc1Cl,inactive: -22.7%,
COc1cccc(CN2c3ccc(Br)cc3C(=O)CS2(=O)=O)c1,inactive: 6.37%,
CC1CCC(n2c(=S)[nH]c3ccccc3c2=O)CC1 (centres undefined),inactive: -10.4%,
COCc1ccc(O)c2ncccc12,,"inconclusive: 10.3 µM [inhibitor, partial curve, poor fit]"
O=C(Nc1cccc2ccccc12)c1cc2c(cc1Br)OCO2,,"inconclusive: 18.4 µM [inhibitor, partial curve]"
CCOC(=O)CSC1=C(C#N)C(c2ccc(C)s2)CC(=O)N1 (centres undefined),,active: 16.4 µM
COc1cc(/C=C2\OC(=O)c3c(OC)cccc32)ccc1O,,"inconclusive: 2.91 µM [inhibitor, full curve]"
CCN(CC)c1ccc(/C=N/NC(=S)NC)c(O)c1,inactive: 84.8%,
Cc1ccccc1Nc1c(N)c(=O)oc2ccccc12,,"inconclusive: 10.3 µM [inhibitor, partial curve]"
CCOC(=O)C(C)N1C(=O)S/C(=C/c2cc(C)n(-c3ccccn3)c2C)C1=O (centres undefined),inactive: -21.2%,
COc1ccc(C(=O)c2ccc(OC)c(N)c2)cc1N,,"inconclusive: 23.1 µM [inhibitor, partial curve, poor fit]"
O=C(Oc1c(Cl)cc(Cl)c2cccnc12)c1ccco1,,"inconclusive: 18.4 µM [inhibitor, single point]"

SMILES,"activity change, negative = inhibition",Potency
Cc1nc2ncccn2c1-c1csc(Nc2ccc(N(C)C)cc2)n1,,active: 7.31 µM
c1ccc(C2=Nn3c(nnc3-c3n[nH]c4c3CCC4)SC2)cc1,,"inconclusive: 5.8 µM [inhibitor, partial curve]"
CNCc1ccccc1Sc1ccc(O)c(O)c1,,active: 23.1 µM
S=C(NCCN1CCOCC1)N/N=C/c1cccs1,inactive: -5.86%,
Cc1ccc(/C=[N+](\[O-])c2ccc(N(C)C)cc2)c2nsnc12,inactive: -2.78%,
COc1ccc(-c2c3c(=O)n(C)c(=O)n(C)c3cn2N2CCOCC2)cc1,,"inconclusive: 10.3 µM [inhibitor, partial curve, poor fit]"
COC(=O)c1ccc(CNC(=O)Cn2cnc3c(NCc4ccccc4)ncnc32)cc1,inactive: -3.53%,
c1ccc2c(-c3csc(-c4ccncc4)n3)c[nH]c2c1,,"inconclusive: 14.6 µM [inhibitor, partial curve]"
CCNC(=S)NNc1ccccc1,inactive: -3.97%,
Cc1ccccc1N1CCN(C2=NC(=O)/C(=C\c3cccs3)S2)CC1,,"inconclusive: 16.4 µM [inhibitor, partial curve]"
Cc1nc2c(-c3ccccc3)c[nH]n2c(=O)c1Cc1ccccc1,inactive: 1.91%,
NC(=S)NN=C1c2ccccc2-c2ccccc21,inactive: 5.84%,
COc1cc(OC)c(OC)cc1/C=C1\CCC/C(=C\c2cc(OC)c(OC)cc2OC)C1=O,,"inconclusive: 7.31 µM [inhibitor, partial curve]"
Cc1c(/C=N\NC(=O)C2COc3ccccc3O2)c2ccccc2n1C (centres undefined),,active: 2.59 µM
CCC(=O)Nc1ccc(SC#N)cc1C,,"inconclusive: 20.6 µM [inhibitor, single point]"
CC1C(=O)N2CCCc3cc(NC(=O)c4ccccc4Br)cc1c32 (centres undefined),,"inconclusive: 20.6 µM [inhibitor, partial curve]"
Cc1ccc(/C=N/NC(=O)c2cc(-c3cccnc3)nc3ccccc23)cc1,,active: 2.31 µM
NS(=O)(=O)c1cc(C(=O)OCC(=O)N2CCc3ccccc3C2)ccc1Cl,inactive: -3.34%,
O=C(NC(=S)NC1CCSC1=O)c1ccccc1 (centres undefined),inactive: -8.61%,
O=C(CSc1cccc[n+]1[O-])Nc1ccccc1Oc1ccccc1,,"inconclusive: 23.1 µM [inhibitor, single point]"
CCCn1nnc(NC(=S)NC(=O)Cc2ccccc2)n1,inactive: -4.95%,
O=C(Nc1ccc(N2CCN(C(=O)c3ccc(Cl)cc3)CC2)cc1)c1ccc([N+](=O)[O-])o1,,"inconclusive: 1.84 µM [inhibitor, full curve]"
C/C(=N\NC(=O)COc1ccc(C(C)(C)C)cc1)c1ccc(N2CCOCC2)cc1,inactive: -11.3%,
COc1cc(C2=NOC(C(=O)NCc3ccco3)C2)cc(OC)c1OC (centres undefined),,"inconclusive: 18.4 µM [inhibitor, partial curve, poor fit]"
COc1ccc2[nH]c3c(c2c1)CCN1C(=O)C(CC(=O)NCC24CC5CC(CC(C5)C2)C4)C[C@H](C(=O)N2CCCCC2)[C@@]31C (some centres undefined),,"inconclusive: 11.6 µM [inhibitor, partial curve, poor fit]"

# Some of the entries above, set out differently.
SMILES | activity change, negative = inhibition | Potency
Cc1nc2ncccn2c1-c1csc(Nc2ccc(N(C)C)cc2)n1 |  | active: 7.31 µM
c1ccc(C2=Nn3c(nnc3-c3n[nH]c4c3CCC4)SC2)cc1 |  | inconclusive: 5.8 µM [inhibitor, partial curve]
CNCc1ccccc1Sc1ccc(O)c(O)c1 |  | active: 23.1 µM
S=C(NCCN1CCOCC1)N/N=C/c1cccs1 | inactive: -5.86% | 
Cc1ccc(/C=[N+](\[O-])c2ccc(N(C)C)cc2)c2nsnc12 | inactive: -2.78% | 
COc1ccc(-c2c3c(=O)n(C)c(=O)n(C)c3cn2N2CCOCC2)cc1 |  | inconclusive: 10.3 µM [inhibitor, partial curve, poor fit]
COC(=O)c1ccc(CNC(=O)Cn2cnc3c(NCc4ccccc4)ncnc32)cc1 | inactive: -3.53% | 
c1ccc2c(-c3csc(-c4ccncc4)n3)c[nH]c2c1 |  | inconclusive: 14.6 µM [inhibitor, partial curve]
CCNC(=S)NNc1ccccc1 | inactive: -3.97% | 
Cc1ccccc1N1CCN(C2=NC(=O)/C(=C\c3cccs3)S2)CC1 |  | inconclusive: 16.4 µM [inhibitor, partial curve]
Cc1nc2c(-c3ccccc3)c[nH]n2c(=O)c1Cc1ccccc1 | inactive: 1.91% | 
NC(=S)NN=C1c2ccccc2-c2ccccc21 | inactive: 5.84% | 
COc1cc(OC)c(OC)cc1/C=C1\CCC/C(=C\c2cc(OC)c(OC)cc2OC)C1=O |  | inconclusive: 7.31 µM [inhibitor, partial curve]
Cc1c(/C=N\NC(=O)C2COc3ccccc3O2)c2ccccc2n1C (centres undefined) |  | active: 2.59 µM
CCC(=O)Nc1ccc(SC#N)cc1C |  | inconclusive: 20.6 µM [inhibitor, single point]
CC1C(=O)N2CCCc3cc(NC(=O)c4ccccc4Br)cc1c32 (centres undefined) |  | inconclusive: 20.6 µM [inhibitor, partial curve]
Cc1ccc(/C=N/NC(=O)c2cc(-c3cccnc3)nc3ccccc23)cc1 |  | active: 2.31 µM
NS(=O)(=O)c1cc(C(=O)OCC(=O)N2CCc3ccccc3C2)ccc1Cl | inactive: -3.34% | 
O=C(NC(=S)NC1CCSC1=O)c1ccccc1 (centres undefined) | inactive: -8.61% | 
O=C(CSc1cccc[n+]1[O-])Nc1ccccc1Oc1ccccc1 |  | inconclusive: 23.1 µM [inhibitor, single point]
CCCn1nnc(NC(=S)NC(=O)Cc2ccccc2)n1 | inactive: -4.95% | 
